# PubChem BioAssay AID743121, NCATS – 2013
# Assay: 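Genes whose silencing strengthens cell killing by camptothecin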 (primary screen)
# System: MDA-MB-231 cells, a human breast cancer line
# Reagents: single siRNA against human genes, 20 nM siRNA (0.8 pmol per well)
# Duration: 120 h (drug added 48 h after transfection, read 72 h later)
# Conditions: camptothecin 20 nM (about EC30) for 72 h; vehicle 0.1% DMSO in parallel plates
# Measurement: 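CellTiter-Glo ATP signal, scaled to control siRNA as percent viability; sensitisation given as log2 of untreated divided by camptothecin-treated viability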
# Scale: log2 vehicle/camptothecin viability: higher = stronger sensitisation to camptothecin; viability with camptothecin and viability without drug: higher = more viable cells
# Active means: 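Active genes have an RSA gene-level p-value below 0.001, computed from the ratios of their separate siRNAs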
# The whole screen tested about 26,000 reagents; this is an unselected part. 167 of all reagents (0.63%) count as active. 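Calls are per gene from RSA p-values that are not deposited; an individual active-marked siRNA can sensitise only weakly.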 Reagents against one gene are numbered here. Reagent sequences are not shown.
target gene,siRNA no.,log2 vehicle/camptothecin viability,viability with camptothecin (% of control),viability without drug (% of control),Call
MYCBP2,1,-0.519,66.8,46.6,inactive
MYCBP2,2,0.104,80.8,86.8,inactive
MYCBP2,3,0.234,48.9,57.5,inactive
MYCBP2,4,-0.262,105,87.9,inactive
NTSR1,1,-0.0176,63.4,62.6,inactive
NTSR1,2,0.459,43.9,60.3,inactive
NTSR1,3,-0.0255,61.3,60.3,inactive
NTSR1,4,0.0909,58.7,62.5,inactive
DIO1,1,-0.234,99.5,84.7,inactive
DIO1,2,0.328,34.5,43.3,inactive
DIO1,3,0.133,51.2,56.1,inactive
DIO1,4,0.196,77.9,89.2,inactive
PAQR8,1,0.115,74.9,81.1,inactive
PAQR8,2,-0.249,48.7,41,inactive
PAQR8,3,-0.106,74.3,69.1,inactive
PAQR8,4,-0.369,73.8,57.1,inactive
COL3A1,1,0.565,26.5,39.3,inactive
COL3A1,2,0.975,15.7,30.8,inactive
COL3A1,3,-0.177,79.6,70.4,inactive
EN2,1,-0.037,96.6,94.1,inactive
EN2,2,-0.139,98.7,89.7,inactive
EN2,3,0.0475,84,86.8,inactive
EN2,4,-0.298,86.4,70.2,inactive
SDCBP,1,-0.0635,71.9,68.8,inactive
SDCBP,2,-0.277,75,61.9,inactive
SDCBP,3,-0.154,98,88.1,inactive

Entries above whose gene name starts with C or c:
target gene,siRNA no.,log2 vehicle/camptothecin viability,viability with camptothecin (% of control),viability without drug (% of control),Call
COL3A1,1,0.565,26.5,39.3,inactive
COL3A1,2,0.975,15.7,30.8,inactive
COL3A1,3,-0.177,79.6,70.4,inactive

The results go on:
target gene,siRNA no.,log2 vehicle/camptothecin viability,viability with camptothecin (% of control),viability without drug (% of control),Call
USP51,1,-0.166,72.7,64.8,inactive
USP51,2,-0.203,120,104,inactive
USP51,3,-0.454,39.7,29,inactive
USP51,4,0.404,53.7,71,inactive
TRAF1,1,-0.148,101,91.2,inactive
TRAF1,2,0.152,91.7,102,inactive
TRAF1,3,-0.36,16.7,13,inactive
TRAF1,4,-0.211,50.9,44,inactive
STAMBP,1,-0.383,94.9,72.8,inactive
STAMBP,2,-0.105,95,88.4,inactive
STAMBP,3,0.205,49.9,57.6,inactive
CALY,1,-0.509,96.9,68.1,inactive
CALY,2,-0.152,69.3,62.3,inactive
CALY,3,-0.344,54.5,42.9,inactive
ALDH1A1,1,-0.0208,44.2,43.6,inactive
ALDH1A1,2,-0.0245,98.1,96.4,inactive
ALDH1A1,3,-0.236,106,89.9,inactive
ALDH1A1,4,0.124,89.4,97.5,inactive
HSPA14,1,-0.0714,113,108,inactive
HSPA14,2,-0.418,96.9,72.5,inactive
HSPA14,3,0.117,82,89,inactive
HSPA14,4,1.1,36.2,77.7,inactive
